From patent US10945989B2, “Perinatal treatment with a flavonoid agonist of the TrkB receptor for BDNF rescues neurogenesis and behavior in the Ts65Dn mouse model of DS” (ALMA MATER STUDIORUM—Universita' di Bologna, priority 2017, dated 2021) come the findings set out here.

The data set concerns Ts65Dn and euploid mice. Briefly: Morris Water Maze, learning phase. In kind it is in vivo, mouse. As to the method: Euploid and Ts65Dn mice received a daily subcutaneous injection (at 9-10 am) of 7,8-DHF (5.0 mg/kg in vehicle) or vehicle from postnatal day 3 (P3) to postnatal day P45-P50. […] These mice will be called here P45 mice. Mice were behaviorally tested in the 6 days that preceded the day of sacrifice (FIG. 2B).
Mice were trained in the MWM task to locate a hidden escape platform in a circular pool, using a previously used protocol (Stagni et al., 2016), that was altogether based on a published protocol (Vorhees and Williams, 2006). The apparatus consisted of a large circular water tank (1.00 m diameter, 50 cm height) with a transparent round escape platform (10 cm^2). The pool was virtually divided into four equal quadrants identified as northeast, northwest, southeast, and southwest. The tank was filled with tap water at a temperature of 22±1.0° C. Mice are more prone to undergo hypothermia than rats and in the MWM hypothermia may cause a reduction in swimming speed (livonen et al., 2003). […] For the learning phase, we evaluated the latency to find the hidden platform, time in periphery, percentage of time in periphery, path length, proximity to the platform, and swimming speed. Retention was assessed with one trial (probe trial), on the sixth day, 24 h after the last acquisition trial, using the same starting point for all mice. […]

The structures appear in SMILES notation.

`O=c1cc(-c2ccccc2)oc2c(O)c(O)ccc12` [7,8-DHF, 7,8-dihydroxyflavone]: the “swimming speed (learning phase)” value was “reduced speed in comparison with untreated euploid mice on days 1, 2, and 3” (Ts65Dn mice, similar to euploid on days 4 and 5); “reduced speed in comparison with untreated euploid mice on day 1” (euploid mice, similar speed on days 2-5).
